We go through 46 targets from the supplement of paper PMC12595434, “Development of retinoid nuclear receptor pathway antagonists through targeting aldehyde dehydrogenase 1A3” (iScience, 2025).

Amino acid sequences for entries named in this document (tags omitted). A change or cut given only in a name is not applied to a line headed by its entry.
UniProt Q9BYJ9: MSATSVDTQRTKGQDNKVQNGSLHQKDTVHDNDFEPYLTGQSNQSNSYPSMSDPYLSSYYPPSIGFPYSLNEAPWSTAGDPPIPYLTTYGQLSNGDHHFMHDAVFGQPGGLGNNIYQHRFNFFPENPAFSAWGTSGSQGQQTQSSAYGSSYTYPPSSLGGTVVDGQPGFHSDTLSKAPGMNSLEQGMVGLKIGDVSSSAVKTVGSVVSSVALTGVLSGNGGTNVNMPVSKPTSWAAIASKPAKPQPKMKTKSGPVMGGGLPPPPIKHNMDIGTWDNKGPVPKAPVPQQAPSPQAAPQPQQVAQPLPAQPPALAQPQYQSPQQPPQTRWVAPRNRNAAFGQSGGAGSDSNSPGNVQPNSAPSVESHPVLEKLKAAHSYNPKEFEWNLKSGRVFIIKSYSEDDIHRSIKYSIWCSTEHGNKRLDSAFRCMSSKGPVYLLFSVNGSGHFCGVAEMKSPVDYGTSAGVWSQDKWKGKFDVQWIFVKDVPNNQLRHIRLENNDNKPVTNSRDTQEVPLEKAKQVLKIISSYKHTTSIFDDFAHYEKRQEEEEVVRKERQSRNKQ
UniProt Q9H5J8: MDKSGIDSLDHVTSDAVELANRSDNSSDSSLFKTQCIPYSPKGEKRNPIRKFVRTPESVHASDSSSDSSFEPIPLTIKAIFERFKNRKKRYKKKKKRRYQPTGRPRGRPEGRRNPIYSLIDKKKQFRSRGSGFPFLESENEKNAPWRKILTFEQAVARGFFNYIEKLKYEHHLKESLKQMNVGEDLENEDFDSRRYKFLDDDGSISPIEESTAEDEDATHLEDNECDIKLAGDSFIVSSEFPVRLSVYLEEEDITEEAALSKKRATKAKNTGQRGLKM
UniProt Q9H0C5: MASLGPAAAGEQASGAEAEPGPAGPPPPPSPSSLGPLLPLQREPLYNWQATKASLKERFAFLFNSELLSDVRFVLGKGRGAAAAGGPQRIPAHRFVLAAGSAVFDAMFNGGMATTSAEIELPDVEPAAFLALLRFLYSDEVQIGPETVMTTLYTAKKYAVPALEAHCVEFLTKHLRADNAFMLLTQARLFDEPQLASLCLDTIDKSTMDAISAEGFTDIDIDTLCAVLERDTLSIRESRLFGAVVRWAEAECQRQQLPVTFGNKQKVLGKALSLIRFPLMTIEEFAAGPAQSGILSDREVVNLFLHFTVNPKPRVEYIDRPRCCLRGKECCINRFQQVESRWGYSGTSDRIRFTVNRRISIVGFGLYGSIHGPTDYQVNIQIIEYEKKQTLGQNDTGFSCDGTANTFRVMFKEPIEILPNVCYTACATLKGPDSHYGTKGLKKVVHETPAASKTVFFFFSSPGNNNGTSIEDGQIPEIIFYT
UniProt Q9H7E9: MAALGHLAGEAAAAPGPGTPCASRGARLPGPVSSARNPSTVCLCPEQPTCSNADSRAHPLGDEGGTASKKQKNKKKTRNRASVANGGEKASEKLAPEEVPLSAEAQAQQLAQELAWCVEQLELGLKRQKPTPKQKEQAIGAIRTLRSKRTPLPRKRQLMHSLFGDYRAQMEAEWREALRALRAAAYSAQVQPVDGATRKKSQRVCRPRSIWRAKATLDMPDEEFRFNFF
UniProt Q9H3P2, whole entry: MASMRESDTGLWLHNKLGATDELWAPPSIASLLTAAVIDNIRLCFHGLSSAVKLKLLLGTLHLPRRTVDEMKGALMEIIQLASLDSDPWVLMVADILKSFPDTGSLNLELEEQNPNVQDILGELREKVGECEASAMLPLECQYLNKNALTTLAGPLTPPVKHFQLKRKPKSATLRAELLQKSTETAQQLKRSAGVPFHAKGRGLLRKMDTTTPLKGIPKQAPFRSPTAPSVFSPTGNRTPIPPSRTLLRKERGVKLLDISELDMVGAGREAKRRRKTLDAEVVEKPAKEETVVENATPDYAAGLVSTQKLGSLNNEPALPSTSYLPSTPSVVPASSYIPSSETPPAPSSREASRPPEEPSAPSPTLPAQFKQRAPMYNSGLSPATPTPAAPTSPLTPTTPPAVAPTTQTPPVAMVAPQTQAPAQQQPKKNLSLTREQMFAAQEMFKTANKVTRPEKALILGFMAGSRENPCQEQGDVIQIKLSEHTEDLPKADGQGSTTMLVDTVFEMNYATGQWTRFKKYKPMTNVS
UniProt Q9H2U2: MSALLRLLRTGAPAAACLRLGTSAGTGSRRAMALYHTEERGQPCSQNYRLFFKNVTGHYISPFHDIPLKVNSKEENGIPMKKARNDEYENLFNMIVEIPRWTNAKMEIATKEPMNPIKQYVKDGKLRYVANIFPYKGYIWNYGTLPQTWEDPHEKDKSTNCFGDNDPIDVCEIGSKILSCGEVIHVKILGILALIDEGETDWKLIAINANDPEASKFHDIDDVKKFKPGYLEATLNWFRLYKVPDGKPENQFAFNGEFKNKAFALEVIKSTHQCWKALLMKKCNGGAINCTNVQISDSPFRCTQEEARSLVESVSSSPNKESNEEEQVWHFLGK
UniProt Q9H0S4: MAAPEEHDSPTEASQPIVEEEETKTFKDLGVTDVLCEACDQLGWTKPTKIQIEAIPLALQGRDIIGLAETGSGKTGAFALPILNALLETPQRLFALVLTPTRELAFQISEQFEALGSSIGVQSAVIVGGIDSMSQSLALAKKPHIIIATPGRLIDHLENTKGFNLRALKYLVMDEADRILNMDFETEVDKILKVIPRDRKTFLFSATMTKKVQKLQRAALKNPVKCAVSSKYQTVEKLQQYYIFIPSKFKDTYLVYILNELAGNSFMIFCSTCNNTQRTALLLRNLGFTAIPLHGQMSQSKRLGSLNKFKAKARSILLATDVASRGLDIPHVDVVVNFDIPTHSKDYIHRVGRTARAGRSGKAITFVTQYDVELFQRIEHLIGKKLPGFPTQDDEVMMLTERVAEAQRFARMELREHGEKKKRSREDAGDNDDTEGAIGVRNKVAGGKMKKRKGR
UniProt Q9BYG5: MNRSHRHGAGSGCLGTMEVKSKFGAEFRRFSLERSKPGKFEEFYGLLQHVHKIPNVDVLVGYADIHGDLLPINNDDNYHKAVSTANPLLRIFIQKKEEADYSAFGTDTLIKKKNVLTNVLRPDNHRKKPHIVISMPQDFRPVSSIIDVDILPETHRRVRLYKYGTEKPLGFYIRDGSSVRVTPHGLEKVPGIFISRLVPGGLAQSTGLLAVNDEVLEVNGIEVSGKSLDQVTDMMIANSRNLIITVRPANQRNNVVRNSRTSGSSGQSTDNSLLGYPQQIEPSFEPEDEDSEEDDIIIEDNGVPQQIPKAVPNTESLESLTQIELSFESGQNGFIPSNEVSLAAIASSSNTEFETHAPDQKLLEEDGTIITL
UniProt Q9H2D6: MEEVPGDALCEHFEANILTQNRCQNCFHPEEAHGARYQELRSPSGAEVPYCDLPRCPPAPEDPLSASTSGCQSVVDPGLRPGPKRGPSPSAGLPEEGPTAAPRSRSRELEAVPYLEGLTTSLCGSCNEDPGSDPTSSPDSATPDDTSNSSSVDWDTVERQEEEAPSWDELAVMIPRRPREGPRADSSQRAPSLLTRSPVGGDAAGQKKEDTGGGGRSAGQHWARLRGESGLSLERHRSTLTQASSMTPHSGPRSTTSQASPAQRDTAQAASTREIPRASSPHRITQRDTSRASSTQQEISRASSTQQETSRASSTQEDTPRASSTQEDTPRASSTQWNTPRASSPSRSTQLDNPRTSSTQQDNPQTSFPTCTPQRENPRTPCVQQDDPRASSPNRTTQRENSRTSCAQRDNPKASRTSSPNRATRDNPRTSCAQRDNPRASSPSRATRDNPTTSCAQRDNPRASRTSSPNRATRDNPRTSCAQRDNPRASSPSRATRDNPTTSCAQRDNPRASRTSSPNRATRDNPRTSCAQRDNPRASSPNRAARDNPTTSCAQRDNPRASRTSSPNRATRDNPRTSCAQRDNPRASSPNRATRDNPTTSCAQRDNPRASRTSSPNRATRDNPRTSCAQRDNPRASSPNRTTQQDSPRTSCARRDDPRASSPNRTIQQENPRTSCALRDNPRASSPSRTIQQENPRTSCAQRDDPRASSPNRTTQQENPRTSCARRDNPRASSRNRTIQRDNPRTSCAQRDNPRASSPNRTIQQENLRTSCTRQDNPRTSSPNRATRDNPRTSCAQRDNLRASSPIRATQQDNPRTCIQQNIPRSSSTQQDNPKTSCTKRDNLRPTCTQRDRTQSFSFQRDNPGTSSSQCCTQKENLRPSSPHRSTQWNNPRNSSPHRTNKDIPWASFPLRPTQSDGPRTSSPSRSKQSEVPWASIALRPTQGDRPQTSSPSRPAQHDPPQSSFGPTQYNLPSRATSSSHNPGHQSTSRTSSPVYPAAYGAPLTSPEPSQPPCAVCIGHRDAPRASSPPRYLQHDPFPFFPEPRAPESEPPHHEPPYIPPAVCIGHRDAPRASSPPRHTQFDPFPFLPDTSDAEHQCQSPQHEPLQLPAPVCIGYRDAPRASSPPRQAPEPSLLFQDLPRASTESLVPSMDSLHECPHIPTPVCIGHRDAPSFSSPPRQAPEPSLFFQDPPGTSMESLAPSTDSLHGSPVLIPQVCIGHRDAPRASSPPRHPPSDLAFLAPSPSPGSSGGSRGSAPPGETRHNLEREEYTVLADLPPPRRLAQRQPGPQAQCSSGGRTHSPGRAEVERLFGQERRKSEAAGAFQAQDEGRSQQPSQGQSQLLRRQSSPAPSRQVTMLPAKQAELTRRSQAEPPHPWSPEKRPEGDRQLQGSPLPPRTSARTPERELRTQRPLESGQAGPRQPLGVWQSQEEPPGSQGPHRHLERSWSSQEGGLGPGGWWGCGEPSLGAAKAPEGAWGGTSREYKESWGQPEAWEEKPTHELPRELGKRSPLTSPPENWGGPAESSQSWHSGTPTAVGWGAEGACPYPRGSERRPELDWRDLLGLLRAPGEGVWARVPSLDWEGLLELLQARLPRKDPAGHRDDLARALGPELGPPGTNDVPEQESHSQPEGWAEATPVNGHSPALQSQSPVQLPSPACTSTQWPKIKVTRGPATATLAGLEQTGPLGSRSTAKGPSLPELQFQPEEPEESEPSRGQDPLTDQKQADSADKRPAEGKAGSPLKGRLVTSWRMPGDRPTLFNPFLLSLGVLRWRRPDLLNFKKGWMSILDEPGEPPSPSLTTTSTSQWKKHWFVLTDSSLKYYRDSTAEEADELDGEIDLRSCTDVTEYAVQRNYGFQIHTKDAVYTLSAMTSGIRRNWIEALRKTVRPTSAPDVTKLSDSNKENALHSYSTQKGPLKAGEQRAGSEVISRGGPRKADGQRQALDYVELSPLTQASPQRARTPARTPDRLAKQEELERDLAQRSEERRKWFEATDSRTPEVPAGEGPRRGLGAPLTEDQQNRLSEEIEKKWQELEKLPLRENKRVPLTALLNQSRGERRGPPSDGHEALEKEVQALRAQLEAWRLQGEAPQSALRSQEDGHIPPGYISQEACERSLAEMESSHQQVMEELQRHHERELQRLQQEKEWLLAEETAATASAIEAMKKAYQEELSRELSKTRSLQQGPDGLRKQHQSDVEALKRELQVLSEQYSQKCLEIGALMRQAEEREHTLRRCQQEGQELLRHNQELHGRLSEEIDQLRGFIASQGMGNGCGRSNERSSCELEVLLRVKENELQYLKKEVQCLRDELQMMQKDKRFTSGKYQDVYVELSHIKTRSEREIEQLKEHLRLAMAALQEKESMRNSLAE
UniProt Q9H6R0: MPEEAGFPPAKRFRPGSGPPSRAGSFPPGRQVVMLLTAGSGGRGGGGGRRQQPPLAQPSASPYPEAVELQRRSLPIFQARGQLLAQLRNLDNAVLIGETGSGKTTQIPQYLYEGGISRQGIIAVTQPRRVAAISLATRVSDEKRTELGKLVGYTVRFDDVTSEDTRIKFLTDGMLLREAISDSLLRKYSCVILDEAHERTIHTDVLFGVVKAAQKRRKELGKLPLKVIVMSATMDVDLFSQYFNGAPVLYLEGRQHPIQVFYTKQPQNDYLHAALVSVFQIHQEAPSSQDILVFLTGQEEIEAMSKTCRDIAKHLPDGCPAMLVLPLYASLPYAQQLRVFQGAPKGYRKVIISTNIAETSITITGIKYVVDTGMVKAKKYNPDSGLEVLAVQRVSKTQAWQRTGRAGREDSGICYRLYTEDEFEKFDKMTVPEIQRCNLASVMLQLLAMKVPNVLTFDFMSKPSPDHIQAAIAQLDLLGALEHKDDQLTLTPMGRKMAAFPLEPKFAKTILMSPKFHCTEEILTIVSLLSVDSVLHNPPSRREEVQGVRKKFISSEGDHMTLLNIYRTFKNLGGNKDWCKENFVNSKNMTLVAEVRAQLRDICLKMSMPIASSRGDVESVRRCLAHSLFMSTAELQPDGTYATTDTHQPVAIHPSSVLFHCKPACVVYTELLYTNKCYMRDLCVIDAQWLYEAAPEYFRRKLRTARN
UniProt Q9GZT6: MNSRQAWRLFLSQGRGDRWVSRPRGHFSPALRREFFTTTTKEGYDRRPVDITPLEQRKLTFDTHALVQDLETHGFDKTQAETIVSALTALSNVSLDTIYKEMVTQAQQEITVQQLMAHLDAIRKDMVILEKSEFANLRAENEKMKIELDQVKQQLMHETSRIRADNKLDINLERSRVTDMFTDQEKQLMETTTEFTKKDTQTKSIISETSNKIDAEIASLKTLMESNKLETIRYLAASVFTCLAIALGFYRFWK

The other results are listed elsewhere or left out. This is a noisy data set.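 Tm was set to 64 °C where no melting was found, and many curves are irregular.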

Compound in this test: CCc1cnccc1C(=O)Nc1cc2c(cc1F)NC(=O)CC2
In words: melting temperature shift (DMSO Tm minus MBE1-treated Tm) in cellular thermal proteome profiling; higher = less thermal stabilization by MBE1 (negative = stabilized by MBE1). As to conditions: A375.

For TOLLIP (UniProt Q9H0E2), the melting temperature shift (MBE1 concentration: 100 nM) is -0.287 °C and the melting temperature shift (MBE1 concentration: 1 uM) worked out at 0.288 °C.
On the same counts, the results for UniProt Q9H2Y7 are -0.583 °C and -0.653 °C.
On the same counts, the results for AMBRA1 (UniProt Q9C0C7) are -0.47 °C and -0.306 °C.
As for NLN (UniProt Q9BYT8), the melting temperature shift by setting is: (MBE1 concentration: 100 nM) -0.997 °C; (MBE1 concentration: 1 uM) -0.0805 °C.
Regarding SH2D4A (UniProt Q9H788), the melting temperature shift is -0.988 °C (MBE1 concentration: 100 nM) and -0.0659 °C (MBE1 concentration: 1 uM).
On the same counts, the results for WNK1 (UniProt Q9H4A3) are -0.387 °C and -0.239 °C.
Regarding XRN2 (UniProt Q9H0D6), the melting temperature shift is -4.07 °C (MBE1 concentration: 100 nM) and -4.89 °C (MBE1 concentration: 1 uM).
Taken in the same sequence, the figures for UniProt Q9C040 were 0.342 °C and -0.0183 °C.
On the same counts, the results for EHD1 (UniProt Q9H4M9) are 0.629 °C and 0.36 °C.
As for UniProt Q9H0H0, the melting temperature shift is 0.214 °C (MBE1 concentration: 100 nM) and -0.812 °C (MBE1 concentration: 1 uM).
For the target UniProt Q9H204, the melting temperature shift was -1.09 °C (MBE1 concentration: 100 nM) and -1.5 °C (MBE1 concentration: 1 uM).
Consider SMG9 (UniProt Q9H0W8), for which the melting temperature shift is, setting by setting: (MBE1 concentration: 100 nM) -0.311 °C; (MBE1 concentration: 1 uM) -0.82 °C.
On the same counts, the results for BRD8 (UniProt Q9H0E9) are -0.971 °C and -0.244 °C.
Taken in the same sequence, the figures for FRMD8 (UniProt Q9BZ67) were 1.8 °C and 1.32 °C.
On the same counts, the results for YTHDF1 (UniProt Q9BYJ9) are 0.116 °C and 0.977 °C.
As to UniProt Q9H0Z9, the melting temperature shift is, setting by setting: (MBE1 concentration: 100 nM) -0.595 °C; (MBE1 concentration: 1 uM) -0.657 °C.
On the same counts, the results for UniProt Q9H5J8 are 0.787 °C and 0.574 °C.
Taken in the same sequence, the figures for UniProt Q9H4W6 were -0.355 °C and 0.235 °C.
In the case of TMEM126A (UniProt Q9H061), the melting temperature shift runs as follows: (MBE1 concentration: 100 nM) -0.637 °C; (MBE1 concentration: 1 uM) -1.36 °C.
Consider UniProt Q9C004, for which the melting temperature shift (MBE1 concentration: 100 nM) is -0.142 °C and the melting temperature shift (MBE1 concentration: 1 uM) was determined as 17.5 °C.
Turning to MRPL1 (UniProt Q9BYD6), the melting temperature shift is, setting by setting: (MBE1 concentration: 100 nM) -0.0047 °C; (MBE1 concentration: 1 uM) 0.282 °C.
On to LDAH (UniProt Q9H6V9), for which the melting temperature shift by setting is: (MBE1 concentration: 100 nM) -0.385 °C; (MBE1 concentration: 1 uM) 0.354 °C.
On the same counts, the results for BTBD1 (UniProt Q9H0C5) are -1.66 °C and -0.58 °C.
On the same counts, the results for WDR26 (UniProt Q9H7D7) are -0.104 °C and -0.202 °C.
C8ORF33 (UniProt Q9H7E9): the melting temperature shift stood at 3.54 °C (MBE1 concentration: 100 nM) and 1.05 °C (MBE1 concentration: 1 uM).
Taken in the same sequence, the figures for UniProt Q9H7H0 were 0.281 °C and 1.36 °C.
Taken in the same sequence, the figures for PUS7L (UniProt Q9H0K6) were 0.818 °C and -0.104 °C.
With PHAX (UniProt Q9H814), the melting temperature shift (MBE1 concentration: 100 nM) is -0.248 °C and the melting temperature shift (MBE1 concentration: 1 uM) came to 0.287 °C.
NELFA (UniProt Q9H3P2): the melting temperature shift is -0.597 °C (MBE1 concentration: 100 nM) and -0.295 °C (MBE1 concentration: 1 uM).
Taken in the same sequence, the figures for ECT2 (UniProt Q9H8V3) were -0.705 °C and -0.0577 °C.
Taken in the same sequence, the figures for PPA2 (UniProt Q9H2U2) were -1.05 °C and 0.452 °C.
Taken in the same sequence, the figures for DDX47 (UniProt Q9H0S4) were 1.09 °C and 0.922 °C.
Take RWDD1 (UniProt Q9H446): the melting temperature shift reads like this: (MBE1 concentration: 100 nM) -0.946 °C; (MBE1 concentration: 1 uM) -0.832 °C.
In the case of PARD6B (UniProt Q9BYG5), the melting temperature shift came to 0.861 °C (MBE1 concentration: 100 nM) and 0.623 °C (MBE1 concentration: 1 uM).
Taken in the same sequence, the figures for CEP41 (UniProt Q9BYV8) were -0.612 °C and -0.193 °C.
Consider DPH1 (UniProt Q9BZG8), for which the melting temperature shift (MBE1 concentration: 100 nM) is -0.812 °C and the melting temperature shift (MBE1 concentration: 1 uM) turned out to be 1.25 °C.
On the same counts, the results for SRR (UniProt Q9GZT4) are 0.58 °C and 0.653 °C.
On the same counts, the results for UniProt Q9BZL4 are -0.884 °C and -0.828 °C.
Taken in the same sequence, the figures for UniProt Q9GZR5 were -0.262 °C and -0.148 °C.
On to TMX4 (UniProt Q9H1E5), for which the melting temperature shift (MBE1 concentration: 100 nM) is -0.939 °C and the melting temperature shift (MBE1 concentration: 1 uM) amounted to 0.511 °C.
Taken in the same sequence, the figures for MRPL37 (UniProt Q9BZE1) were 0.397 °C and 0.721 °C.
For the target NSRP1 (UniProt Q9H0G5), the melting temperature shift reads like this: (MBE1 concentration: 100 nM) -1.31 °C; (MBE1 concentration: 1 uM) -1.31 °C.
As for UniProt Q9H019, the melting temperature shift by setting is: (MBE1 concentration: 100 nM) 1.1 °C; (MBE1 concentration: 1 uM) 0.953 °C.
Taken in the same sequence, the figures for TRIOBP (UniProt Q9H2D6) were -1.29 °C and -1.52 °C.
On the same counts, the results for UniProt Q9H6R0 are -0.682 °C and -0.706 °C.
On to CCDC90B (UniProt Q9GZT6), for which the melting temperature shift is -2.33 °C (MBE1 concentration: 100 nM) and -1.39 °C (MBE1 concentration: 1 uM).
